The values below come from PMC7819943, “Rice protein-binding microarrays: a tool to detect cis-acting elements near promoter regions in rice”.

Protein sequences, listed by entry. Tags and fused reporters are not part of them.
UniProt Q0JBA9, entry or part of it: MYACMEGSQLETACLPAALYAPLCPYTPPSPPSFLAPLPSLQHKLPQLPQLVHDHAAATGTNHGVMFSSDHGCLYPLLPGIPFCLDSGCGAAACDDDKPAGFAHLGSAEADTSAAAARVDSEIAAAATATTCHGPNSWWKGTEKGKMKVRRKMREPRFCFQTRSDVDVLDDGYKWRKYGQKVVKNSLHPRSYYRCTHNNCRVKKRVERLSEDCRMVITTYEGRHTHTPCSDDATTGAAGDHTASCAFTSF

This is one part of the list.

The target in the test is OsWRKY34 (Oryza sativa, UniProt Q0JBA9 1-250). Kind of test: protein-binding microarray (RPBM); PBS, 2% BSA, 51.3 ng/ul salmon testes DNA, 50 uM zinc acetate, 200 nM TF, 25 C, 1 h; high values mean tight binding. Conditions: protein: recombinant; tags: N-terminal polyhistidine and DsRed monomer fusion (pET32a); label: CyDye5-dUTP incorporated in the synthesized complementary strand; 3' TTTTT single-stranded linker to array surface; dsDNA, one strand shown. In short, it runs like this: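 An Axon 4000B scanner gave the binding signal as per-feature fluorescence intensity in arbitrary units. This followed washing of a custom Agilent array that had been incubated for 1 h at 25 °C with 200 nM protein in PBS, 2% BSA, salmon testes DNA and 50 µM zinc acetate. The proteins were transcription factors fused at the N-terminus to polyhistidine and DsRed, expressed in E. coli BL21-CodonPlus and purified on Ni–NTA.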
For “ACAAATCTGTAGCCCACTGCCATTCTCTCTCCTCATTTATCGGAGTCACCTAGTGCAG”, the binding signal was 8150 fluorescence intensity (a.u.).

With “CCCCTCCATGACTTGTGTTTTGCCATCGCGCGCTTTTGCCCGGAGTCACCTAGTGCAG”, the binding signal was 8680 fluorescence intensity (a.u.).

“TTCGTTGTACTTACCATCGTTGTTTAGTTTGATTTTTTTTCGGAGTCACCTAGTGCAG”: the binding signal was 8950 fluorescence intensity (a.u.). For the sequence “TACTGTTCATATCCAATGTTTAACCATCCGTCTTATCTAACGGAGTCACCTAGTGCAG”, the binding signal is 9360 fluorescence intensity (a.u.).

Consider “TGGGAGGGTTTCTGATCATCAGCTGTCCTCTTTACCGGCACGGAGTCACCTAGTGCAG”, for which the binding signal is 11300 fluorescence intensity (a.u.). On to “TATTTGGCTGTATTGGTTATTTCTATTATTCTATTCAATTCGGAGTCACCTAGTGCAG”, for which the binding signal was 11100 fluorescence intensity (a.u.). In the case of “CTTTGCACCCCATTTTCGGCTGTGTTTAGTTCACGTCAAACGGAGTCACCTAGTGCAG” it was 8660 fluorescence intensity (a.u.).

For “TTTTCACAGAAATCAGTCTATTTCTACTTCTTACCGATTTCGGAGTCACCTAGTGCAG”, the binding signal was 8100 fluorescence intensity (a.u.). In the case of “TATACTACTCTATCTGTTTCATGTTATAAAACGTTTTGACCGGAGTCACCTAGTGCAG” it was 9660 fluorescence intensity (a.u.); in that of “GCGACTATGGTTTGTGTGTGTTGTATCATTACCTAATTAGCGGAGTCACCTAGTGCAG”, 10800 fluorescence intensity (a.u.). The result for “GGGTCTTAGGTTCTTAGCGCTTTTGTTTGACTCCTGATCGCGGAGTCACCTAGTGCAG” reads 8160 fluorescence intensity (a.u.); that for “AGCGATGATCTAGCCATAAATCTTTCCGTTGACTCTCGCGCGGAGTCACCTAGTGCAG”, 10900 fluorescence intensity (a.u.). Turning to “GAATTGGTTCTGTGATGGAAGAACTACATTTGGATGATAACGGAGTCACCTAGTGCAG”, the binding signal is 8710 fluorescence intensity (a.u.).

On to “CTCAATTTCCCATCCCCATCCCACCAAAATTCACATGTATCGGAGTCACCTAGTGCAG”, for which the binding signal was 8270 fluorescence intensity (a.u.).

On to “CTCGCCGCCCACCGGATACACCGCCCACCGCCGGGCTGCCCGGAGTCACCTAGTGCAG”, for which the binding signal is 10400 fluorescence intensity (a.u.). In the case of “CCACCTCTGCCCTATGACCTCGCCTGTGGTCGCCGCCGCGCGGAGTCACCTAGTGCAG”, the binding signal is 10200 fluorescence intensity (a.u.). For “GCTTAGACTCTGCCGGTCTGACCGGCCACATACCGCCGGTCGGAGTCACCTAGTGCAG”, the binding signal is 8830 fluorescence intensity (a.u.).

On to “TATGCTGGTACCTGTGTTTATTCATGACCTGATTCTCATACGGAGTCACCTAGTGCAG”, for which the binding signal was 8900 fluorescence intensity (a.u.). In the case of “GTGTTCACTAAAATGCTATTTTGGGTCTTTTGGGTTAATACGGAGTCACCTAGTGCAG” it was 8100 fluorescence intensity (a.u.); in that of “CCCGCCGCCGCCTCCTTGATCTCCTCGCCGCACTCTCTGTCGGAGTCACCTAGTGCAG”, 11300 fluorescence intensity (a.u.); in that of “TTCATCCTTCGACTGTGTTTATCCTTTTTCTGATGTGTTTCGGAGTCACCTAGTGCAG”, 12400 fluorescence intensity (a.u.). For the sequence “GTCCCATGTTTGAATCTTATGAACCGTTCATATTTTACATCGGAGTCACCTAGTGCAG”, the binding signal was 12400 fluorescence intensity (a.u.).

For the sequence “AGCAATATTTGGATCTCTCCTTTTTTTTATTTTTTTATTTCGGAGTCACCTAGTGCAG”, the binding signal is 10500 fluorescence intensity (a.u.). As to “GCGTGTCGTGGCCGCACATCCATATCCATGTCATCCTCATCGGAGTCACCTAGTGCAG”, the binding signal was 8660 fluorescence intensity (a.u.). Take “CCGATCTGAAGTAGGAGTATTAGGTTATGTTCTTTACTCTCGGAGTCACCTAGTGCAG”: the binding signal is 8540 fluorescence intensity (a.u.).

Consider “GCATCTGCATGCCATCTCATCTCATCTCACATTCCTCACACGGAGTCACCTAGTGCAG”, for which the binding signal was 8830 fluorescence intensity (a.u.). For “GTGCTTTGATACAGGGATTGTGCAGGGTGGGGAGGATAGACGGAGTCACCTAGTGCAG”, the binding signal was 16100 fluorescence intensity (a.u.). In the case of “CCACATCATTTTTCATTCTAGTTGATAGCTTATTTAATGTCGGAGTCACCTAGTGCAG” it was 9230 fluorescence intensity (a.u.).

In the case of “ATATGCTAAAAAGTCAACGGTGTCAAACATTTATTAACGGCGGAGTCACCTAGTGCAG”, the binding signal is 13400 fluorescence intensity (a.u.). Take “ATAACCTCTAGCTAGCTCTGCCTGATCCAGTACTGTTAAACGGAGTCACCTAGTGCAG”: the binding signal is 8120 fluorescence intensity (a.u.). As to “TTCCCTCTAAGTTATTGCCGTGTCGTTCTTATCTTAACCACGGAGTCACCTAGTGCAG”, the binding signal was 11100 fluorescence intensity (a.u.). For “CCTGCATGCGTGGCTGCGCTCACTGTCGTTATTTGCTTTACGGAGTCACCTAGTGCAG”, the binding signal is 10100 fluorescence intensity (a.u.). In the case of “GGGAATAACTCGTCGATGTCAGCCGCATGCACGCCAAGAGCGGAGTCACCTAGTGCAG” it was 10400 fluorescence intensity (a.u.). “TTTACAGCGACTATATATCTCTCCCTCATCTCCATCTAGACGGAGTCACCTAGTGCAG”: the binding signal is 8190 fluorescence intensity (a.u.). With “TCATAATTATAATTGCCATCTCTACTTGGTATCAGGTACACGGAGTCACCTAGTGCAG”, the binding signal is 8570 fluorescence intensity (a.u.).

Take “GGCATGTGGTTGTTCGTGCTCCTTGCATGCCACACTTAATCGGAGTCACCTAGTGCAG”: the binding signal was 8090 fluorescence intensity (a.u.).

Turning to “ACTAAACTTCCGCCGGCGTGTGGGCACATCGCACCGGCGCCGGAGTCACCTAGTGCAG”, the binding signal was 8360 fluorescence intensity (a.u.). Turning to “CATATGTATGAGGGTATCTTTGTTTTGGCTTTGGTCCCTTCGGAGTCACCTAGTGCAG”, the binding signal is 10200 fluorescence intensity (a.u.). As to “TCATGCCTTATTTGTATATCCCCTCTCTCTCCCTTTGTCTCGGAGTCACCTAGTGCAG”, the binding signal was 8560 fluorescence intensity (a.u.). On to “GGGCGGTGGCGGACTGGCGGACTGACGACGACGGCGCCGGCGGAGTCACCTAGTGCAG”, for which the binding signal is 8320 fluorescence intensity (a.u.).

With “TCTTTGTACTAAGGAGCTTGGTTATATTACATTCTGTGTACGGAGTCACCTAGTGCAG”, the binding signal was 8280 fluorescence intensity (a.u.).

For “AAGGTGAGGTTGATGTTCTTTGTGTTGGTTACATGATGAGCGGAGTCACCTAGTGCAG”, the binding signal was 10500 fluorescence intensity (a.u.).
